Measured data: PubChem BioAssay AID743448 (Peter MacCallum Cancer Centre, 2014)
Shown is a random part of the 106 reagents, in one setting of the screen. 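Calls are per line and drug panel including etoposide, not vorinostat-specific; gene picks needed hits in two or more extra lines with vorinostat versus etoposide.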 A number with no mark means an inactive call.

- Assay: 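Test whether knock-downs sensitising to vorinostat hold across several colon lines but not etoposide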 (follow-up of hits)
- Cells: four human colon cancer cell lines: HCT116-VR (vorinostat-resistant HCT116 derivative), SW480, SW620 and LIM1215
- Reagents: siRNA pool against human genes, 40 nM siRNA pool
- Duration: drug added two days after transfection, read one day later
- Challenge: vorinostat 2.5 µM on one half of each plate, etoposide 5 µM on the other half
- Cell line and drug panel: LIM1215 cells with etoposide
- Detection: 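Caspase luminescence and viability fluorescence, each expressed relative to mock transfection and also as robust z-scores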
- Scale: caspase ratio to mock: higher = more caspase activity than mock; viability ratio to mock: higher = more live cells than mock; caspase robust z-score: higher = more caspase activity, more apoptosis; viability robust z-score: higher = more live cells
- Call rule: 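a row is a hit if caspase relative to mock is 1.6 or above or viability relative to mock is 0.75 or below; wells dying heavily without drug are not called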
- Calls: active = caspase or viability hit in this panel; inactive = no change, or unhealthy well

The first 2 records, to show the layout:
gene | PubChem SID | caspase ratio to mock | viability ratio to mock | caspase robust z-score | viability robust z-score
EIF2B5 | SID135622351 | 1.96 (active) | 0.74 | -0.23 | -1.29
IRX2-DT | SID134321834 | 5.19 | 0.95 | 3.07 | 0.18

Results, from the first entry:
gene | PubChem SID | caspase ratio to mock | viability ratio to mock | caspase robust z-score | viability robust z-score
EIF2B5 | SID135622351 | 1.96 (active) | 0.74 | -0.23 | -1.29
IRX2-DT | SID134321834 | 5.19 | 0.95 | 3.07 | 0.18
NUP54 | SID135623354 | 2.43 (active) | 0.85 | 0.33 | -0.5
LBHD1 | SID152153391 | 3.23 (active) | 0.92 | 1.28 | -0.04
AKAP8 | SID56479229 | 1.86 (active) | 0.92 | -0.31 | 0
THAP3 | SID135625034 | 1.69 (active) | 0.84 | -0.45 | -0.53
PCP4 | SID134323861 | 3.38 (active) | 1.12 | 1.17 | 1.36
MAGOH | SID134315673 | 3.36 (active) | 0.82 | 1.23 | -0.68
TOX4 | SID135624154 | 3.62 | 0.94 | 1.52 | 0.06
CNOT3 | SID134324038 | 2.68 (active) | 0.9 | 0.48 | -0.17
CAPN12 | SID134311229 | 2.32 | 0.57 | 0.24 | -2.34
NUP93 | SID134324412 | 3.82 | 0.66 | 2.01 | -1.73
VPS4A | SID134317329 | 3.32 (active) | 0.96 | 1.21 | 0.26
NUP62 | SID135622326 | 2.82 (active) | 1.01 | 0.76 | 0.56
SAP130 | SID135623281 | 1.34 | 0.88 | -0.84 | -0.32
SIN3A | SID134317232 | 1.67 (active) | 1.12 | -0.48 | 1.28
NPC1L1 | SID152154372 | 1.84 | 0.94 | -0.3 | 0.15
KIR2DL1 | SID135624029 | 1.36 | 1.09 | -0.73 | 1.12
SH3GLB2 | SID135623023 | 1.45 | 0.99 | -0.65 | 0.4
EIF3L | SID135624088 | 1.48 | 0.76 | -0.68 | -1.12
BEGAIN | SID134318275 | 1.43 | 0.97 | -0.72 | 0.31
THAP1 | SID135624170 | 1.75 (active) | 1.12 | -0.41 | 1.38
TDP2 | SID134321508 | 3.04 (active) | 0.92 | 0.99 | -0.05
NFYA | SID134313982 | 1.5 | 1.02 | -0.7 | 0.65
GATA1 | SID134314339 | 2.4 (active) | 0.97 | 0.36 | 0.28
SLU7 | SID152150851 | 3.94 (active) | 0.78 | 2 | -0.91
DNTTIP2 | SID152146868 | 0.98 | 0.84 | -1.18 | -0.6
CCDC59 | SID152156179 | 2.7 (active) | 0.82 | 0.55 | -0.68
MICALL2 | SID152147720 | 3.46 (active) | 1.15 | 1.4 | 1.5
EIF2B2 | SID152153708 | 2.5 (active) | 0.64 | 0.52 | -1.9
OSBPL6 | SID134314182 | 3.19 (active) | 1.03 | 1.12 | 0.72
POLR2I | SID134316532 | 1.21 | 0.94 | -0.97 | 0.05
CBX7 | SID135621801 | 2.62 (active) | 0.78 | 0.43 | -1.03
C22orf15 | SID135623572 | 1.84 (active) | 1.02 | -0.29 | 0.6
